Experimental data as given in publication PMC3171153.
Results are given in words; binding and its absence hold for the method and conditions named. Binding seen in cells or lysates may run through a third protein. These calls come from enrichment with a bait or labelling near it, and not all partners need be listed.

Each substance was assayed against T1, endogenous SHC1 of EGF-stimulated Rat2 fibroblasts (rat (endogenous in Rat2 fibroblasts)) (UniProt Q5M824) (assay: affinity purification with mass spectrometry; endogenous SHC1 captured with scFv 72_1A10 on FLAG-M2 agarose from lysate of Rat2 fibroblasts stimulated with EGF (100 ng/ml, 3 min); partners detected by MRM-based LC-MS with MS/MS validation).
T1 sequence (chain, pSer29 and pTyr313 detected by MS): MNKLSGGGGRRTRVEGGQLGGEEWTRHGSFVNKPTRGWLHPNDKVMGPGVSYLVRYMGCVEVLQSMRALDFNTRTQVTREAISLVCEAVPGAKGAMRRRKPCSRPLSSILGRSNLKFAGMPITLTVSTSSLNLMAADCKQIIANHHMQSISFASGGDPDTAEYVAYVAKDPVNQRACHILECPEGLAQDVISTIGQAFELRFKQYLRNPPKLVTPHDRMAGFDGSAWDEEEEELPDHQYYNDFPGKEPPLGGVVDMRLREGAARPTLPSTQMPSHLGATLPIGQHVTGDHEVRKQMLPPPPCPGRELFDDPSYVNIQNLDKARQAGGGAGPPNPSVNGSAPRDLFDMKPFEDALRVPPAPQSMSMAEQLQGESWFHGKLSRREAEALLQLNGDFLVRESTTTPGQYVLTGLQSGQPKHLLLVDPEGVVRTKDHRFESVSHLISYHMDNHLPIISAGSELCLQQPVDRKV

| binding | Substance |
| --- | --- |
| binds | SOS1 (rat (endogenous in Rat2 fibroblasts)) |
| binds | GAB1 (rat (endogenous in Rat2 fibroblasts)) |
| binds | PTPN12 (rat (endogenous in Rat2 fibroblasts)) (enzyme) |
| binds | PTPN11 (from UniProt P41499 1-593) (enzyme) |
